Data taken from publication PMC10609836.
These are yes or no findings as the source states them, for the method shown. Binding seen in cells or lysates may run through a third protein. Some binding calls cover weakened binding; strength is not graded here.

Amino acid sequences for entries named in this document (tags omitted).
UniProt P17383: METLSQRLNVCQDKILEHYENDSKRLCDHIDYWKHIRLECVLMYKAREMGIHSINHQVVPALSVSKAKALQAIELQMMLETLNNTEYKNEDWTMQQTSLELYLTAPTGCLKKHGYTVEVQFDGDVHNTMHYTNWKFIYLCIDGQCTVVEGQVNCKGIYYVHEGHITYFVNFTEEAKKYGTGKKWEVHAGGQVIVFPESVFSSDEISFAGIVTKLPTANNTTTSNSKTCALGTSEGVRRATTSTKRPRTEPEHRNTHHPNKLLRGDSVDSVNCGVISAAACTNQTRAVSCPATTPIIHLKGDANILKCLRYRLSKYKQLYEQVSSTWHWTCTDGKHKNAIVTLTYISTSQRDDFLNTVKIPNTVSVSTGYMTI
UniProt Q14289: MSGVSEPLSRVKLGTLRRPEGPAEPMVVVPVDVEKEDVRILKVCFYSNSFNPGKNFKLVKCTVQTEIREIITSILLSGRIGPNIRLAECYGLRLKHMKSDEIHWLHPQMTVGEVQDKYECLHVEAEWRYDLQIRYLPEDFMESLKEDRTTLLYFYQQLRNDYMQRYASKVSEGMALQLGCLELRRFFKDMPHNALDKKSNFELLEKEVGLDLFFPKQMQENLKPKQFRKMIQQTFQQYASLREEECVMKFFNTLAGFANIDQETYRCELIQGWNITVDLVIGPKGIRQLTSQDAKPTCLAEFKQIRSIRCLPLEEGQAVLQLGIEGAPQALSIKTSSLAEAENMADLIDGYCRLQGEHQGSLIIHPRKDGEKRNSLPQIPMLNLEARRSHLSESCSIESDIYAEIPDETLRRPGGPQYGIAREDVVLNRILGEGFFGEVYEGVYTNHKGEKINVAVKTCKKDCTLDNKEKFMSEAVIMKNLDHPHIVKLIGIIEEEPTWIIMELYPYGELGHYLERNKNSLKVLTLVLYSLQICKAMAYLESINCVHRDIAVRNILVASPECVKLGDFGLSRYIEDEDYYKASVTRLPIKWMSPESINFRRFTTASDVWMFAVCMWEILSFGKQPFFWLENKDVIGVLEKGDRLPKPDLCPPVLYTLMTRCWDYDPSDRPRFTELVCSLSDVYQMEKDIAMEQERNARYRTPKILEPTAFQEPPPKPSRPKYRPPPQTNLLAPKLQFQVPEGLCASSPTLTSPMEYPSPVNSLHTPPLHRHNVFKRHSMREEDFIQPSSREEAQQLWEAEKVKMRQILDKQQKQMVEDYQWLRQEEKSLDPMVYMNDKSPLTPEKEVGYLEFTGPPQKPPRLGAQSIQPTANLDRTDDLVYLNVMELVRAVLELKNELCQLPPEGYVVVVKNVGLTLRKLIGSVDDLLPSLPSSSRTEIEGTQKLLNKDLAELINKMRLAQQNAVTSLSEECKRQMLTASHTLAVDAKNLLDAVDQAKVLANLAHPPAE
UniProt Q00944: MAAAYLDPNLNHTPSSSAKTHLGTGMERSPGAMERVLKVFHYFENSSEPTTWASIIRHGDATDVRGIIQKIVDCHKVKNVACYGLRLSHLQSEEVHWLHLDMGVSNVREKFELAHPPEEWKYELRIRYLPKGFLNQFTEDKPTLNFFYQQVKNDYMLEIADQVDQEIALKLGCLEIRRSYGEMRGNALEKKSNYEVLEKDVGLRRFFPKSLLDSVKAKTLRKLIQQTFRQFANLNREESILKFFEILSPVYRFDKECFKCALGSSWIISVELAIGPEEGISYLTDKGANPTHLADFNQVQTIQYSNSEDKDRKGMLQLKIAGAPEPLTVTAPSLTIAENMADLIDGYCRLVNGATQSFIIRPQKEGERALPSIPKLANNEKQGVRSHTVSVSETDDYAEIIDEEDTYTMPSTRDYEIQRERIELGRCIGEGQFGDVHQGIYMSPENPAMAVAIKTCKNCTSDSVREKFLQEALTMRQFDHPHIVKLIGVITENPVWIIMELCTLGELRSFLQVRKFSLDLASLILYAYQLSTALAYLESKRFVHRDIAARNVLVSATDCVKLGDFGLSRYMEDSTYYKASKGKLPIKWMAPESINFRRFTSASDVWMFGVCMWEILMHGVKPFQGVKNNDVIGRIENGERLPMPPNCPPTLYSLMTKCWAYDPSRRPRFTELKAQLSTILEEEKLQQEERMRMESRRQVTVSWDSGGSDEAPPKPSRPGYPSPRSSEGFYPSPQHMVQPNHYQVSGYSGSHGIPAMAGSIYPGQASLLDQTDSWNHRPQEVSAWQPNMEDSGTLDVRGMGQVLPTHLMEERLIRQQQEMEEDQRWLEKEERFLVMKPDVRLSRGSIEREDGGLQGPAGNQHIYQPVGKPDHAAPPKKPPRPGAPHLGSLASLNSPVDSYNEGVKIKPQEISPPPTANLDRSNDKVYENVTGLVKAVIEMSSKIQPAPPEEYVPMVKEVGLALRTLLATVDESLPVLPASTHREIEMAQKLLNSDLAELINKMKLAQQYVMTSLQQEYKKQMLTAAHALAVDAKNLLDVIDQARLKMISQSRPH

Biological target: FLAG-tagged HPV-31 E2 (HPV-31) (UniProt P17383)
Experiment: co-IP; HEK293TT cells co-transfected with FLAG-E2 and GFP-kinase constructs; FLAG-E2 immunoprecipitated with FLAG (M2) antibodies; complexes blotted with FLAG and GFP antibodies

| Substance | binding |
| --- | --- |
| GFP-Pyk2 (wild type) (from UniProt Q14289 1-1009) (enzyme) | binds |
| GFP-tagged focal adhesion kinase (FAK) (from UniProt Q00944 1-1053) (enzyme) | binds |
